Source: patent US20030195187A1, “Guanidino compounds” (CHIRON CORPORATION, priority 2002, published 2003)
Some entries share one result that the patent states for a list of compounds.

Protein sequences, listed by entry. Tags and fused reporters are not part of them.
UniProt P32245, whole entry, species assumed: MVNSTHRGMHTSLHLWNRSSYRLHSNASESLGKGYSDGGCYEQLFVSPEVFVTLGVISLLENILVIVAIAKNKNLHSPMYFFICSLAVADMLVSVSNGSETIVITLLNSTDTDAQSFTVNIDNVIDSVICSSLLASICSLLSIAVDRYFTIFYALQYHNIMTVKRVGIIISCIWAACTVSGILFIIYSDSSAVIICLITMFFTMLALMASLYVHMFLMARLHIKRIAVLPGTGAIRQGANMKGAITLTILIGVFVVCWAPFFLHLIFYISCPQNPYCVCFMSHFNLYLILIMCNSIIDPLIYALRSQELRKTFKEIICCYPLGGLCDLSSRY

target: MC4-R (Homo sapiens, UniProt P32245); test: cAMP Scintillation Proximity Assay in cells expressing MC4-R; type: cell-based; settings: intercellular cAMP measured by SPA kit

| Compound | −log EC50 |
| --- | --- |
| 3-(2,4-dufluorophenyl)-N-{4-[((E)-[(3S)-3-methylpiperazin-1-yl]{[(1S,2S,3S,5R)-2,6,6-trimethylbicyclo[3.1.1]hept-3-yl]imino}methyl)amino]phenyl}propanamide [Example 89] | above 3 |
| C[C@@H]1[C@@H](NC(=Nc2ccc(C(=O)N3CCCc4ccccc43)cc2)N2CCN[C@@H](C)C2)C[C@H]2C[C@@H]1C2(C)C [Example 3, (3S)—N′-[4-(3,4-Dihydroquinolin-1(2H)-ylcarbonyl)phenyl]-3-methyl-N-[(1S,2S,3S,5R)-2,6,6-trimethylbicyclo[3.1.1]hept-3-yl]piperazine-1-carboximidamide] | above 3 |
| COc1ccc2c(c1)CN(C(=O)c1ccc(N=C(N[C@H]3C[C@H]4C[C@@H]([C@@H]3C)C4(C)C)N3CCN[C@@H](C)C3)cc1)CC2 [Example 4, (3S)-3-Methyl-N′-(4-{[7-(methyloxy)-3,4-dihydroisoquinolin-2(1H)-yl]carbonyl}phenyl)-N-[(1S,2S,3S,5R)-2,6,6-trimethylbicyclo[3.1.1]hept-3-yl]piperazine-1-carboximidamide] | above 3 |
| Cc1cc(C)c2c(c1)CN(C(=O)c1ccc(N=C(N[C@H]3C[C@H]4C[C@@H]([C@@H]3C)C4(C)C)N3CCN[C@@H](C)C3)cc1)CC2 [Example 5, (3S)-N′-{4-[(5,7-dimethyl-3,4-dihydroisoquinolin-2(1H)-yl)carbonyl]phenyl}-3-methyl-N-[(1S,2S,3S,5R)-2,6,6-trimethylbicyclo[3.1.1]hept-3-yl]piperazine-1-carboximidamide] | above 3 |
| COc1ccc2c(c1)CCN(C(=O)c1ccc(N=C(NC3CC4CC(C3C)C4(C)C)N3CCNC(C)C3)cc1)C2 [Example 6, (3S)-3-methyl-N′-(4-{[(6-(methyloxy)-3,4-dihydroisoquinolin-2(1H)-yl]carbonyl}phenyl)-N-[(1S,2S,3S,5R)-2,6,6-trimethylbicyclo[3.1.1]hept-3-yl]piperazine-1-carboximidamide] | above 3 |
| CC1CN(C(=NC2CC3CC(C2C)C3(C)C)Nc2ccc(C(=O)N3CCc4ccccc43)cc2)CCN1 [Example 7, (3S)-N-[4-(2,3-dihydro-1H-indol-1-ylcarbonyl)phenyl]-3-methyl-N′-[(1S,2S,3S,5R)-2,6,6-trimethylbicyclp[3.1.1]hept-3-yl]piperazine-1-carboximidamide] | above 3 |
| C[C@@H]1[C@@H](NC(=Nc2ccc(C(=O)N3CCc4ccc(Br)cc4C3)cn2)N2CCN[C@@H](C)C2)C[C@H]2C[C@@H]1C2(C)C [Example 8, (3S)-N′-{5-[(7-bromo-3,4-dihydroisoquinolin-2(1H)-yl)carbonyl]pyridin-2-yl}-3-methyl-N-[(1S,2S,3S,5R)-2,6,6-trimethylbicyclo[3.1.1]hept-3-yl]piperazine-1-carboximidamide] | above 3 |
| CC1CN(C(=Nc2ccc(C(=O)N3CCc4ccc(Cl)cc4C3)cn2)NC2CC3CC(C2C)C3(C)C)CCN1 [Example 9, (3S)-N′-{5-[(7-chloro-3,4-dihydroisoquinolin-2(1H)-yl)carbonyl]pyridin-2-yl}-3-methyl-N-[(1S,2S,3S5R)-2,6,6-trimethylbicyclo[3.1.1]hept-3-yl]piperazine-1-carboximidamide] | above 3 |
| C[C@@H]1[C@@H](NC(=Nc2ccc(C(=O)N3CCc4ccc(F)cc4C3)cn2)N2CCN[C@@H](C)C2)C[C@H]2C[C@@H]1C2(C)C [Example 10, (3S)-N′-{5-[(7-fluoro-3,4-dihydroisoquinolin-2(1H)-yl)carbonyl]pyridin-2-yl}-3-methyl-N-[(1S,2S,3S,5R)-2,6,6-trimethylbicyclo[3.1.1]hept-3-yl]piperazine-1-carboximidamide] | above 3 |
| COc1ccc2c(c1)CN(C(=O)c1ccc(N=C(NC3CCCCCC3)N3CCN[C@@H](C)C3)cc1)CC2 [Example 11] | above 3 |
| COc1ccc2c(c1)CCN(C(=O)c1ccc(N=C(NC3CCC(C)CC3)N3CCN[C@@H](C)C3)cc1)C2 (stereo partly drawn) [Example 12, (3S)-3-methyl-N-(4-methylcyclohexyl)-N′-(4-{[6-(methyloxy)-3,4-dihydroisoquinolin-2(1H)-yl]carbonyl}phenyl)piperazine-1-carboximidamide] | above 3 |
| COc1cc2c(cc1OC)CN(C(=O)c1ccc(N=C(N[C@H]3C[C@@H]4C[C@H]([C@@H]3C)C4(C)C)N3CCN[C@@H](C)C3)cc1)CC2 [Example 13, (3S)-N′-(4-{[6,7-bis(methyloxy)-3,4-dihydroisoquinolin-2(1H)-yl]carbonyl}phenyl)-3-methyl-N-[(1R,2S,3S,5S)-2,6,6-trimethylbicyclo[3.1.1]hept-3-yl]piperazine-1-carboximidamide] | above 3 |
| COc1ccc2c(c1)CN(C(=O)c1ccc(N=C(NC3CCC(C)CC3)N3CCN[C@@H](C)C3)cc1)CC2 (stereo partly drawn) [Example 14, (3S)-3-methyl-N-(4-methylcyclohexyl)-N′-(4-{[7-(methyloxy)-3,4-dihydroisoquinolin-2(1H)-yl]carbonyl}phenyl)piperazine-1-carboximidamide] | above 3 |
| COc1ccc2c(c1)CCN(C(=O)c1ccc(N=C(NC3CCCCCC3)N3CCN[C@@H](C)C3)cc1)C2 [Example 15] | above 3 |
| Cc1cc(C)c2c(c1)CN(C(=O)c1ccc(N=C(NC3CCC(C)CC3)N3CCNC(C)C3)cc1)CC2 [Example 16, (3S)-N′-{4-[(5,7-dimethyl-3,4-dihydroisoquinolin-2(1H)-yl)carbonyl]phenyl}-3-3methyl-N-(4-methylcyclohexyl)piperazine-1-carboximidamide] | above 3 |
| Cc1cc(C)c2c(c1)CN(C(=O)c1ccc(N=C(NC3CCCCCC3)N3CCN[C@@H](C)C3)cc1)CC2 [Example 17, (3S)-N-cycloheptyl-N′-{4-[(5,7-dimethyl-3,4-dihydroisoquinolin-2(1H)-yl)carbonyl]phenyl}-3-methylpiperazine-1-carboximidamide] | above 3 |
| COc1cc2c(cc1OC)CN(C(=O)c1ccc(N=C(NC3CCCCCC3)N3CCN[C@@H](C)C3)cc1)CC2 [Example 18, (3S)-N′-(4-{[6,7-bis(methyloxy)-3,4-dihydroisoquinolin-2(1H)-yl]carbonyl}phenyl)-N-cycloheptyl-3-methylpiperazine-1-carboximidamide] | above 3 |
| COc1cc2c(cc1OC)CN(C(=O)c1ccc(N=C(NC3CCC(C)CC3)N3CCN[C@@H](C)C3)cc1)CC2 (stereo partly drawn) [Example 19, (3S)-N′-(4-{[6,7-bis(methyloxy)-3,4-dihydroisoquinolin-2(1H)-yl]carbonyl}phenyl)-3-methyl-N-(4-methylcyclohexyl)piperazine-1-carboximidamide] | above 3 |
| C[C@@H]1[C@H](N=C(Nc2ccc(C(=O)N3CCc4ccc(Br)cc4C3)cc2)N2CCN[C@@H](C)C2)C[C@H]2C[C@@H]1C2(C)C [Example 20, (3S)-N-{4-[(7-bromo-3,4-dihydroisoquinolin-2(1H)-yl)carbonyl]phenyl}-3-methyl-N′-[(1S,2S,3R,5R)-2,6,6-trimethylbicyclo[3.1.1]hept-3-yl]piperazine-1-carboximidamide] | above 3 |
| C[C@@H]1[C@H](N=C(Nc2ccc(C(=O)N3CCc4ccc(Cl)cc4C3)cc2)N2CCN[C@@H](C)C2)C[C@H]2C[C@@H]1C2(C)C [Example 21, (3S)-N-{4-[(7-chloro-3,4-dihydroisoquinolin-2(1H)-yl)carbonyl]phenyl}-3-methyl-N′-[(1S,2S,3R,5R)-2,6,6-trimethylbicyclo[3.1.1]hept-3-yl]piperazine-1-carboximidamide] | above 3 |
| C[C@@H]1C(N=C(Nc2ccc(C(=O)N3CCc4ccc(F)cc4C3)cc2)N2CCN[C@@H](C)C2)C[C@H]2C[C@@H]1C2(C)C (stereo partly drawn) [Example 22, (3S)-N-{4-[(7-fluoro-3,4-dihydroisoquinolin-2(1H)-yl)carbonyl]phenyl}-3-methyl-N′-[(1S,2S,5R)-2,6,6-trimethylbicyclo[3.1.1]hept-3-yl]piperazine-1-carboximidamide] | above 3 |
| COc1ccc2c(c1)CN(C(=O)c1ccc(NC(=NC3CC4CC(C3C)C4(C)C)N3CCNC(C)C3)nc1)CC2 [Example 23, (3S)-3-methyl-N-(5-{]7-(methyloxy)-3,4-dihydroisoquinolin-2(1H)-yl]carbonyl}pyridin-2-yl)-N′-[(1S,2S,3S,5R)-2,6,6-trimethylbicyclo[3.1.1]hept-3-yl]piperazine-1-1carboximidamide] | above 3 |
| COc1ccc2c(c1)CCN(C(=O)c1ccc(NC(=N[C@H]3C[C@H]4C[C@@H]([C@@H]3C)C4(C)C)N3CCN[C@@H](C)C3)cc1)CC2 [Example 24, (3S)-3-methyl-N-(4-{[7-(methyloxy)-1,2,4,5-tetrahydro-3H -3-benzazepin-3-yl]carbonyl}phenyl)-N′-[(1S,2S,3S,5R)-2,6,6-trimethylbicyclo[3.1.1]hept-3-yl]piperazine-1-carboximidamide] | above 3 |
| COc1ccc2c(c1)C(c1ccc(NC(=NC3CC4CC(C3C)C4(C)C)N3CCNC(C)C3)cc1)=NCC2 [Example 25, (3S)-3-methyl-N-{4-[7-(methyloxy)-3,4-dihydroisoquinolin-1-yl]phenyl}-N′-[(1S,2S,3R,5R)-2,6,6-trimethylnicyclo[3.1.1]hept-3-yl]piperazine-1-carboximidamide] | above 3 |
| Cc1ccc2c(c1)C(c1ccc(NC(=N[C@@H]3C[C@H]4C[C@@H]([C@@H]3C)C4(C)C)N3CCN[C@@H](C)C3)cc1)=NCC2 [Example 26, (3S)-3-methyl-N-[4-(7-methyl-3,4-dihydroisoquinolin-1-yl)phenyl]-N′-[(1S,2S,3R,5R)-2,6,6-trimethylbicyclo[3.1.1]hept-3-yl]piperazine-1-carboximidamide] | above 3 |
| COc1ccc2c(c1)C(c1ccc(NC(=NC3CC4CC(C3C)C4(C)C)N3CCNC(C)C3)cc1)NCC2 [Example 27, (3S)-3-methyl-N-{4-[7-(methyloxy)-1,2,3,4-tetrahydroisoquinolin-1-yl]phenyl-N′-[(1S,2S,3S,5R)-2,6,6-trimethylbicyclo[3.1.1]hept-3-yl]piperazine-1-carboximidamide] | above 3 |
